# Assay results taken from the supplement of paper PMC10849652.
# Chains of the proteins cited; added tags and fusions are not shown. Lines headed by an entry give the natural chain unless they say otherwise; changes in a name come on top.
# UniProt Q9NY27: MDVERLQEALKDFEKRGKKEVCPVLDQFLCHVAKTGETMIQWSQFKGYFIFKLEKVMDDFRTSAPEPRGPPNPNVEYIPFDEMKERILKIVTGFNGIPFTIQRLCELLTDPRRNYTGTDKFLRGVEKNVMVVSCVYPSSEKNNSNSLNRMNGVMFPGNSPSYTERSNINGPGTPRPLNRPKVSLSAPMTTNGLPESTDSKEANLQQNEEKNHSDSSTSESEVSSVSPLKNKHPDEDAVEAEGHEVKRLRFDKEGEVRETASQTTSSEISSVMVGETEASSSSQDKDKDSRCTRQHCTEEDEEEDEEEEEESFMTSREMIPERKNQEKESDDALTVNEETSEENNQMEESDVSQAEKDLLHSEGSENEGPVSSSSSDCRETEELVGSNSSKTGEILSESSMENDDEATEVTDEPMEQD
# UniProt P67775, whole entry, looked up: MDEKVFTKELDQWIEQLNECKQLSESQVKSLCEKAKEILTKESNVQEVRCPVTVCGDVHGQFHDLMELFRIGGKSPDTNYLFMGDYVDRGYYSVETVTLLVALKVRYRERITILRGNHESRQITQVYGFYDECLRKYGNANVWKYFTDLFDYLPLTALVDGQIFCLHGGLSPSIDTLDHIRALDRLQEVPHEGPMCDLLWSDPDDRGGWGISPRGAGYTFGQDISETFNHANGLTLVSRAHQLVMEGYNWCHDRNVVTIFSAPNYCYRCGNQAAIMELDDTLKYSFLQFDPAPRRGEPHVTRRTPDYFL
# UniProt Q6ZMI0: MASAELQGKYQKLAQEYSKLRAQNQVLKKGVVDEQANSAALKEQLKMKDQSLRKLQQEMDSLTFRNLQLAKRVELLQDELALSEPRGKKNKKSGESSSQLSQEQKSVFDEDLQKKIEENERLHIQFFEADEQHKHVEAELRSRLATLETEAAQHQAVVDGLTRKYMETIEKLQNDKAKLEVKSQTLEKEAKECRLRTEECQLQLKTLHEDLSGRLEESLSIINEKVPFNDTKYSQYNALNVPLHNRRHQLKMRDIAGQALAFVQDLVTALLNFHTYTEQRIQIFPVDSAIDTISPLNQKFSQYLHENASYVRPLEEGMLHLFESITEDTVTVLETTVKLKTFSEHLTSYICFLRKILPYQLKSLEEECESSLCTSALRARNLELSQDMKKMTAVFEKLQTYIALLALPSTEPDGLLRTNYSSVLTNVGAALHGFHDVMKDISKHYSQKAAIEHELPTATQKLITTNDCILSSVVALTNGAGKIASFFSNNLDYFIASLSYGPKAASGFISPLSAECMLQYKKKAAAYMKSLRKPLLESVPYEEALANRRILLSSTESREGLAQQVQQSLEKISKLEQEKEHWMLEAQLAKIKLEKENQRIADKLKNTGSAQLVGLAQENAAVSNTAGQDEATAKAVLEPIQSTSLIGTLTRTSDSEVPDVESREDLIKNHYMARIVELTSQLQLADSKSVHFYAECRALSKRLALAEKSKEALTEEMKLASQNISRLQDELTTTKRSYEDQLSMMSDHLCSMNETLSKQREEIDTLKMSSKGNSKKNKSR
# UniProt Q5H9R7: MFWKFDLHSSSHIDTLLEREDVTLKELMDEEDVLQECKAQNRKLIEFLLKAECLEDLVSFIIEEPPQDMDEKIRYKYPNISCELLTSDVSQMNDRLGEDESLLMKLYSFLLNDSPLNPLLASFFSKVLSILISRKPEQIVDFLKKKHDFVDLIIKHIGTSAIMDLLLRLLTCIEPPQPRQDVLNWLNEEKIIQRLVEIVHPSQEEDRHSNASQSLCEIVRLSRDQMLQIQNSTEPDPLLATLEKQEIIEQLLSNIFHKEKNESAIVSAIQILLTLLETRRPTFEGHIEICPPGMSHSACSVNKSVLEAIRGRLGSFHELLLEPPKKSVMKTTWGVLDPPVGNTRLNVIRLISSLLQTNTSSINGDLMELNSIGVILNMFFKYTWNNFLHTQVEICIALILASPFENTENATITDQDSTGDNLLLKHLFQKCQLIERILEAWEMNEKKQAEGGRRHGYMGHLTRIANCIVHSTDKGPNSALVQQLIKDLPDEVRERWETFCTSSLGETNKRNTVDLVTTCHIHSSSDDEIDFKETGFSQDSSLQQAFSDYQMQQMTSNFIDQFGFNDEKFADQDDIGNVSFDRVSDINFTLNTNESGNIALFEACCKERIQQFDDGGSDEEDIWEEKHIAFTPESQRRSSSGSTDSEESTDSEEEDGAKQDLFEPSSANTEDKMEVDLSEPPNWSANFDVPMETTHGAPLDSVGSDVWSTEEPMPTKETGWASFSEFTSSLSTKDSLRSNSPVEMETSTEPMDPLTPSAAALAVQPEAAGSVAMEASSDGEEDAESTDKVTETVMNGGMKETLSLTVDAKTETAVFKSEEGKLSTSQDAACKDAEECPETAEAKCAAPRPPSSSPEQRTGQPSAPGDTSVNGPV
# UniProt O94906: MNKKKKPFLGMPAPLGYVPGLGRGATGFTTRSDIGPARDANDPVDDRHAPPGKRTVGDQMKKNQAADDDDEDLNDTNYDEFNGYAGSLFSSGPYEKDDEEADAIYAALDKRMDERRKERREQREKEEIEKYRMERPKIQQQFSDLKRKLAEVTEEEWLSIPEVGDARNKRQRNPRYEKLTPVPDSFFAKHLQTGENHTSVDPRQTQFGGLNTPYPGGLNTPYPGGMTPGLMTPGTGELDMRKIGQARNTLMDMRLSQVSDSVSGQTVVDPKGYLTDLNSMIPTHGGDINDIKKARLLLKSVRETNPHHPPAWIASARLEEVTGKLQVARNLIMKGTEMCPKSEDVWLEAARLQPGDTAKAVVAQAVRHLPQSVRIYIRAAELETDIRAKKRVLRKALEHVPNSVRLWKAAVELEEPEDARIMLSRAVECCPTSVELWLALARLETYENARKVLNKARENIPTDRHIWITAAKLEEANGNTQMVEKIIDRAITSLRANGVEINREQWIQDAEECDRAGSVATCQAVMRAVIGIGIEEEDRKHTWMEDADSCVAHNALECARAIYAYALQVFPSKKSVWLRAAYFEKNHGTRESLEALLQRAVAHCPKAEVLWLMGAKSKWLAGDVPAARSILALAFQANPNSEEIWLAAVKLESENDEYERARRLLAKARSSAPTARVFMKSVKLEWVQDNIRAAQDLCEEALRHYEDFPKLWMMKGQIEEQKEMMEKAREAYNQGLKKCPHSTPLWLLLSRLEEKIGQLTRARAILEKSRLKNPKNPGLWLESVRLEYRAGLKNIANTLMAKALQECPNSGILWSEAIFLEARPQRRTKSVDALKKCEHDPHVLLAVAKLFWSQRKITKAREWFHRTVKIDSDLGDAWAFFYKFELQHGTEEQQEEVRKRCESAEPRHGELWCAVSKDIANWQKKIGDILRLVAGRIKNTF
# UniProt O43314: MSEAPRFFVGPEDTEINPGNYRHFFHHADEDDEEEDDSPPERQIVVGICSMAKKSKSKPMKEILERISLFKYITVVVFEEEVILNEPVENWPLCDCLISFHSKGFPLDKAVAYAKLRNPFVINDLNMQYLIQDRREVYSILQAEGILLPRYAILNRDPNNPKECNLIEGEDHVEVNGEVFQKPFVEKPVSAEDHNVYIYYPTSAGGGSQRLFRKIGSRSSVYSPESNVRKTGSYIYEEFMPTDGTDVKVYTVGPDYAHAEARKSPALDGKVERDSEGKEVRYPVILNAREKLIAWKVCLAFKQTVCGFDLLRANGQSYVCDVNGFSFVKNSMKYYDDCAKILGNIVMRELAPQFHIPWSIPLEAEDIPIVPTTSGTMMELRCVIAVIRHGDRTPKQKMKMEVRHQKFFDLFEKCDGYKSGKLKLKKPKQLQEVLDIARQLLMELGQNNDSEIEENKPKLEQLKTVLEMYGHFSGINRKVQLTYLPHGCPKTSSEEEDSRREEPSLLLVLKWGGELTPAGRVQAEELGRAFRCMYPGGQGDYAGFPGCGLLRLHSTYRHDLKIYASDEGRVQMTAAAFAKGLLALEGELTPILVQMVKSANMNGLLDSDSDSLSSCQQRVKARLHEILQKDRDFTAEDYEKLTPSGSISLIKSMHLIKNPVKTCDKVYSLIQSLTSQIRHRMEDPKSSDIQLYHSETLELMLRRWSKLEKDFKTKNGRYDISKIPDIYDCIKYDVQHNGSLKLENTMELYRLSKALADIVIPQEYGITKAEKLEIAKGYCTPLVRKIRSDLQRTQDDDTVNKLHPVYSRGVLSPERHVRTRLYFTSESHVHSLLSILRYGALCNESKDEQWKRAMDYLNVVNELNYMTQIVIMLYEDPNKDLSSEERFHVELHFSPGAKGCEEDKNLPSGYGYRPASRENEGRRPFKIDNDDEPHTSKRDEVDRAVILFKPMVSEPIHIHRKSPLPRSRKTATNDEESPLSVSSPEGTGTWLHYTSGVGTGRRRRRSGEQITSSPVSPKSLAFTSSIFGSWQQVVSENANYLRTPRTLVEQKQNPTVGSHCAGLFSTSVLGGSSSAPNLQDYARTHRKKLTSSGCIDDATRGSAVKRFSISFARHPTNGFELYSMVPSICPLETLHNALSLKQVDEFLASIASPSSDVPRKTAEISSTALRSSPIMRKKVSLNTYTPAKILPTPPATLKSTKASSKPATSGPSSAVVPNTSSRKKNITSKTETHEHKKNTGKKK
# UniProt Q5SWA1: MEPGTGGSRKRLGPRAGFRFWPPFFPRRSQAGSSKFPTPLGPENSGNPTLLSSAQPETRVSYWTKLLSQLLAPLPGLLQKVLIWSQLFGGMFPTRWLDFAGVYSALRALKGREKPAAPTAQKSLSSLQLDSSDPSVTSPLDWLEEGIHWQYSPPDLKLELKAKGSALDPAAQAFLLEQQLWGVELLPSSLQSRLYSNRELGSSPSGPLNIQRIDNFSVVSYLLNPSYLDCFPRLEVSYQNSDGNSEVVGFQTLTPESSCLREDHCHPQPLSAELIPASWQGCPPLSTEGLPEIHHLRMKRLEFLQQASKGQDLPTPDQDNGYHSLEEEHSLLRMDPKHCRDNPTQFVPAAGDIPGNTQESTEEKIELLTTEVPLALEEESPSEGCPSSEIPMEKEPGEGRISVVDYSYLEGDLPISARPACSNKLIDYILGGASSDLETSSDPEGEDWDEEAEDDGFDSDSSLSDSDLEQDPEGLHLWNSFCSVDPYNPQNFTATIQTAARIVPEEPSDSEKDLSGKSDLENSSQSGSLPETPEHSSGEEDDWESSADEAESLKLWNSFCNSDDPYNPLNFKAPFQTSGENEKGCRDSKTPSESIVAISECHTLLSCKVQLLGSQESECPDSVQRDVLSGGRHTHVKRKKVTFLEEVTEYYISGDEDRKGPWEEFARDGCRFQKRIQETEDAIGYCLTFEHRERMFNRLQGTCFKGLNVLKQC
# UniProt P14314: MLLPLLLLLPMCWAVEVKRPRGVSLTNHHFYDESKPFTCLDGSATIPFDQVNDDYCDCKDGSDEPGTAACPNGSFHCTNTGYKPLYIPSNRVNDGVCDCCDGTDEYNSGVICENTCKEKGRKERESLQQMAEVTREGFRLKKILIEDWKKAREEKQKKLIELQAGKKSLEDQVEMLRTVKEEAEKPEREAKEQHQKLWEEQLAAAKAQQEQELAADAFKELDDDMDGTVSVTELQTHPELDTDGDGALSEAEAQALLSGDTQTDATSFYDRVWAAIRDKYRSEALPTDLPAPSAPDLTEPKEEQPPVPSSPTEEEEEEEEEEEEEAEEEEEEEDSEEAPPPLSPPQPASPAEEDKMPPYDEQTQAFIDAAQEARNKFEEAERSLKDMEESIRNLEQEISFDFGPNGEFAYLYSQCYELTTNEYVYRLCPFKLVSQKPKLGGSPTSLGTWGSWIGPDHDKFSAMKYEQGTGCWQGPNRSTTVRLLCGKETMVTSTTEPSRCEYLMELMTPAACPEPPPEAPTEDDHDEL
# The list shows a part of the results.
# Key:
# Assay in all cases: log2 fold change, soluble protein after heating vs DMSO (PISA); higher = thermal stabilisation; K562 lysate, 10 uM; active = over 0.2 and 3.5 SD of the protein, either way, in both replicates (recomputed)
# alvocidib = compound: CN1CC[C@H](c2c(O)cc(O)c3c(=O)cc(-c4ccccc4Cl)oc23)[C@H](O)C1 [alvocidib]
# Procedure, shortened: (§1)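 Soluble protein was defined as the supernatant remaining after 21,000xg for 90 min, following pooling of heated aliquots and adjustment to 0.5% NP-40 at 4°C. Before that, crude K562 extract at 1 mg/mL protein in PBS pH 7.4 with 1 mM MgCl2 was treated with 10 μM compound for 30 min and heated for 3 min across 48°C-58°C. Quantification used TMTpro 16plex LC-MS/MS with channel sums equalised, and values are log-two fold changes in thermal stability relative to solvent controls from duplicates.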
# Tubastatin A = compound: CN1CCc2c(c3ccccc3n2Cc2ccc(C(=O)NO)cc2)C1 [Tubastatin A]
# Procedure, shortened: as §1
# [1] = compound: CNC(=O)C1=CC=CC=C1NC2=NC(=NC=C2Cl)NC3=C(C=C(C=C3)N4CCOCC4)OC
# Procedure, shortened: as §1
# defactinib = compound: CNC(=O)c1ccc(Nc2ncc(C(F)(F)F)c(NCc3nccnc3N(C)S(C)(=O)=O)n2)cc1 [defactinib]
# Procedure, shortened: as §1
# [2] = compound: CNc1nc(-c2ccc3c(N)n[nH]c3c2)cc(N2C[C@@H](C(=O)NC3CCCCC3)CC[C@H]2C)n1
# Procedure, shortened: as §1
# encorafenib = compound: COC(=O)N[C@@H](C)CNc1nccc(-c2cn(C(C)C)nc2-c2cc(Cl)cc(NS(C)(=O)=O)c2F)n1 [encorafenib]
# Procedure, shortened: as §1
# [3] = compound: COC(=O)[C@H](CCSC)NC(=O)C1=C(C=C(C=C1)NC[C@H](CS)N)C2=CC=CC=C2
# Procedure, shortened: as §1
# alisertib = compound: COc1cc(Nc2ncc3c(n2)-c2ccc(Cl)cc2C(c2c(F)cccc2OC)=NC3)ccc1C(=O)O [alisertib]
# Procedure, shortened: as §1
# [4] = compound: COc1cc2nc(-c3cc(F)ccc3O)nc(N[C@@H]3CNC[C@H]3C(C)(C)O)c2cc1OC
# Procedure, shortened: as §1
# gefitinib = compound: COc1cc2ncnc(Nc3ccc(F)c(Cl)c3)c2cc1OCCCN1CCOCC1 [gefitinib]
# Procedure, shortened: as §1
Target,log2 fold change (alvocidib),log2 fold change (Tubastatin A),log2 fold change [1],log2 fold change (defactinib),log2 fold change [2],log2 fold change (encorafenib),log2 fold change [3],log2 fold change (alisertib),log2 fold change [4],log2 fold change (gefitinib)
PPM1E (UniProt Q8WY54),inactive: -0.027,inactive: -0.011,inactive: 0.008,inactive: 0.019,inactive: -0.119,inactive: 0.006,inactive: 0.014,inactive: 0.007,inactive: -0.036,inactive: -0.077
PPP4R2 (UniProt Q9NY27),inactive: 0.021,inactive: 0.013,inactive: 0.018,inactive: 0.015,inactive: 0.014,inactive: 0.025,inactive: -0.014,inactive: -0.058,inactive: -0.002,inactive: -0.01
PPP2CA (UniProt P67775),inactive: -0.062,inactive: -0.018,inactive: 0.026,inactive: -0.064,inactive: -0.019,inactive: 0.128,active: -0.374,inactive: -0.016,inactive: -0.013,inactive: -0.009
PPIP5K1 (UniProt Q6PFW1),inactive: -0.001,inactive: -0.059,inactive: -0.021,inactive: 0.031,inactive: -0.021,inactive: 0.029,inactive: 0.053,inactive: 0.011,inactive: -0.04,inactive: 0.006
PPP1R21 (UniProt Q6ZMI0),inactive: -0.012,inactive: 0.07,inactive: 0.021,inactive: 0.008,inactive: -0.037,inactive: 0.002,inactive: 0.159,inactive: 0.05,inactive: -0.001,inactive: -0.004
PPP2R5A (UniProt Q15172),inactive: 0.063,inactive: -0.053,inactive: 0.004,inactive: 0.041,inactive: -0.034,inactive: -0.01,inactive: 0.132,inactive: -0.006,inactive: -0.008,inactive: -0.068
PRKAR1B (UniProt P31321),inactive: -0.038,inactive: -0.069,inactive: 0.024,inactive: -0.016,inactive: -0.126,inactive: -0.018,inactive: 0.016,inactive: -0.015,inactive: 0.004,inactive: -0.018
PPP6R3 isoform 6 (UniProt Q5H9R7),inactive: -0.232,inactive: 0.154,–,–,–,–,–,–,–,–
PPP1R7 (UniProt Q15435),inactive: 0.028,inactive: 0.015,inactive: -0.034,inactive: -0.008,inactive: -0.092,inactive: 0,inactive: 0.007,inactive: 0.008,inactive: 0,inactive: 0.031
PPP1R8 (UniProt Q12972),inactive: -0.095,inactive: 0.028,inactive: -0.025,inactive: -0.003,inactive: 0.044,inactive: 0.028,inactive: -0.049,inactive: 0.022,inactive: -0.012,inactive: -0.05
PRPF6 (UniProt O94906),inactive: 0.006,inactive: -0.096,inactive: 0.01,inactive: 0.025,inactive: -0.011,inactive: 0.024,active: 0.22,inactive: 0.008,inactive: 0.009,inactive: -0.016
PPP1R2 (UniProt P41236),inactive: 0.034,inactive: 0.063,inactive: 0.001,inactive: -0.032,inactive: -0.05,inactive: -0.072,inactive: -0.039,inactive: -0.036,inactive: 0.003,inactive: -0.038
PPM1B (UniProt O75688),inactive: -0.029,inactive: 0.025,inactive: -0.016,inactive: -0.008,inactive: 0.091,inactive: 0.016,inactive: -0.012,inactive: -0.002,inactive: 0.008,inactive: 0.018
PPIP5K2 (UniProt O43314),inactive: 0.022,inactive: -0.074,inactive: 0.029,inactive: 0.032,inactive: -0.031,inactive: 0.003,inactive: 0.078,inactive: -0.007,inactive: -0.007,inactive: -0.017
PPP1CC isoform 2 (UniProt P36873),inactive: -0.021,inactive: -0.015,inactive: 0.023,inactive: -0.049,inactive: 0.042,inactive: -0.007,inactive: 0.014,inactive: 0.038,inactive: -0.008,inactive: -0.016
PPIL3 (UniProt Q9H2H8),inactive: -0.105,inactive: -0.044,inactive: 0,inactive: -0.115,inactive: 0.012,inactive: 0.011,inactive: 0.008,inactive: -0.033,inactive: 0.018,inactive: -0.02
PPP2CB (UniProt P62714),inactive: 0.005,inactive: -0.001,inactive: 0.025,inactive: -0.019,inactive: 0.007,inactive: 0.001,inactive: -0.124,inactive: -0.055,inactive: 0.002,inactive: -0.004

Target,log2 fold change (alvocidib),log2 fold change (Tubastatin A),log2 fold change [1],log2 fold change (defactinib),log2 fold change [2],log2 fold change (encorafenib),log2 fold change [3],log2 fold change (alisertib),log2 fold change [4],log2 fold change (gefitinib)
PRKAR2A (UniProt P13861),inactive: -0.028,inactive: -0.019,inactive: -0.176,inactive: -0.085,inactive: -0.017,inactive: 0.037,inactive: 0.142,inactive: 0.002,inactive: -0.062,inactive: 0.024
PRKDC (UniProt P78527),inactive: -0.06,inactive: -0.114,inactive: -0.002,inactive: 0.033,inactive: -0.03,inactive: -0.022,inactive: -0.035,inactive: 0.012,inactive: -0.003,–
PPP1CB (UniProt P62140),inactive: -0.038,inactive: -0.003,inactive: 0.07,inactive: -0.027,inactive: -0.003,inactive: -0.032,inactive: -0.009,inactive: 0.004,inactive: 0,inactive: 0.016
PRMT6 (UniProt Q96LA8),inactive: -0.017,inactive: -0.016,inactive: -0.033,inactive: -0.019,inactive: -0.125,inactive: 0.047,inactive: 0,inactive: 0.002,inactive: 0,inactive: 0.032
PRH1 (UniProt P02810),inactive: -0.18,–,–,–,–,–,–,–,–,–
PPP1R15B (UniProt Q5SWA1),inactive: 0.066,–,–,–,–,–,–,–,–,–
PRKCA (UniProt P17252),inactive: 0.034,inactive: -0.005,inactive: -0.027,inactive: 0.032,inactive: -0.041,inactive: 0.048,inactive: -0.041,inactive: -0.031,inactive: 0.133,inactive: -0.038
PRKCSH isoform 2 (UniProt P14314),inactive: -0.124,inactive: 0.002,inactive: -0.078,inactive: -0.011,inactive: -0.05,inactive: 0.039,inactive: -0.013,inactive: -0.079,inactive: -0.042,inactive: 0.092
PRKCD (UniProt Q05655),inactive: -0.082,inactive: 0.036,inactive: -0.012,inactive: -0.032,inactive: -0.003,inactive: -0.009,inactive: 0.056,inactive: -0.031,active: 0.235,inactive: 0.002
PPP6R3 isoform 5 (UniProt Q5H9R7),inactive: -0.028,inactive: -0.004,inactive: -0.013,inactive: 0.003,inactive: -0.003,inactive: 0.015,inactive: -0.068,inactive: -0.013,inactive: 0.003,inactive: 0.016
PRMT3 (UniProt O60678),inactive: 0.01,inactive: 0.025,inactive: -0.003,inactive: -0.006,inactive: 0.023,inactive: -0.013,inactive: -0.03,inactive: 0.001,inactive: 0.008,inactive: -0.034
PRKCB isoform 2 (UniProt P05771),inactive: -0.004,inactive: 0.054,inactive: -0.029,inactive: -0.019,inactive: 0.03,inactive: 0.057,inactive: -0.203,inactive: 0.039,inactive: 0.148,inactive: 0.008
PROSER2 (UniProt Q86WR7),inactive: -0.064,inactive: -0.011,inactive: 0.004,inactive: 0.089,inactive: 0.003,inactive: 0.016,inactive: -0.006,inactive: 0.061,inactive: 0.008,inactive: -0.002
PPP2R5C isoform 4 (UniProt Q13362),inactive: 0.059,inactive: -0.014,inactive: -0.022,inactive: -0.01,inactive: -0.08,inactive: -0.03,inactive: -0.047,inactive: -0.036,inactive: 0.009,inactive: -0.007
PPP1R12C isoform 3 (UniProt Q9BZL4),inactive: -0.027,inactive: -0.023,–,–,–,–,–,–,–,–
PPP6R2 isoform 5 (UniProt O75170),inactive: -0.048,inactive: -0.032,inactive: 0.049,inactive: 0.013,inactive: -0.031,inactive: 0.025,inactive: -0.001,inactive: 0,inactive: 0.018,inactive: -0.025
